In patent US20020182595, “Method of identifying cellular regulators of adeno-associated virus (AAV)” (published 2002):

Biological target: T1, ZF5C clone A25 GAL4 activation domain fusion (Homo sapiens) (UniProt O43829)
T1 sequence (looked up): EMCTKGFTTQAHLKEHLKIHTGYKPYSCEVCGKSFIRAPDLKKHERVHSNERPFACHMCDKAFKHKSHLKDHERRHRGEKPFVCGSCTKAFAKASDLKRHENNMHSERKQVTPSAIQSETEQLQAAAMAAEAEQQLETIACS
Experiment: one hybrid
Conditions: yeast LacZ activation; protein in cells; protein details: GAL4 activation domain (pGAD-GH)

“AGCTTCAGTGAGCGAGCGAGCGCGCAGGTTCGAAGTGAGCGAGCGAGCGCGCAGGTGAGCGAGCGAGCGCGCAGC (double strand) [three tandem RRS upstream of LacZ (YM.RRS3.LacZ)]”: binds.

The exact form of at least one protein or probe is not confirmed. Where cells or extracts were used, other partners may take part. Protein sequences can lack the tags named with them.
